According to PubChem BioAssay AID2685 (National Center for Advancing Translational Sciences (NCATS), 2010):
Some of the results follow. These are further read-outs of the screen, such as a control signal, another cell line or another target. No call is given for them. The list favours compounds with an active or inconclusive main result. The note in brackets gives the kind of curve behind each potency; many fits are weak.

Assay: qHTS Assay for Lipid Storage Modulators in Drosophila S3 Cells;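 on cell number change: cells counted by Cell Tracker Red CMTPX staining in the red channel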
Conditions: BODIPY lipid droplet fluorescence, 18-24 h; for cell number change: measured here: cell count max response, cells fed with added oleic acid
Summary of the method: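 Drosophila S3 cells got compounds at several concentrations plus oleic acid (400 uM solution). Laser-scanning cytometry with 488 nm excitation read lipid droplets at 500-530 nm and cells at 575-640 nm. Percent activity was relative to 20 uM Triacsin C.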

[1] = measured here: cell number channel AC50, cells fed with added oleic acid
[2] = measured here: lipid fluorescence (Fed channel) AC50, cells fed with added oleic acid

| SMILES | cell number change [%] | AC50 [1] | AC50 [2] |
| --- | --- | --- | --- |
| CC1(C)CC(=O)C(C(c2cccnc2)C2C(=O)CC(C)(C)CC2=O)C(=O)C1 | 47.3 | 18.4 µM [rising, single point] | – |
| Cc1cc2c3c([nH]c2cc1S(=O)(=O)N1CCC2(CC1)OCCO2)CCCC3=O | -19.5 | 4.61 µM [falling, single point] | – |
| CC(C)C[C@H](NC(=O)N1CCn2c1nc1ccccc12)C(=O)NCc1ccccc1 | -11.8 | – | 0.146 µM [falling, full curve, poor fit] |
| COc1ccccc1NC(=O)CSc1nc2nccnc2c(=O)n1Cc1cccs1 | 14.5 | – | 0.58 µM [falling, single point] |
| CCOc1cc(/C=C/C(=O)c2ccc(OC)c(CN3CCOCC3)c2)cc(Br)c1O | -92.1 | – | – |
| O=C1COc2ccc(C(=O)c3ccccc3C(=O)O)cc2N1 | -2.53 | – | 0.164 µM [rising, full curve, poor fit] |
| Cc1ccc(C(CC(=O)c2ccco2)SCCO)cc1 (centres undefined) | -0.862 | – | – |
| O=C(COC(=O)C1CCN(S(=O)(=O)c2cc([N+](=O)[O-])ccc2Cl)CC1)Nc1ncc(Cl)cc1Cl | -0.64 | 6.51 µM [falling, single point] | 4.61 µM [falling, partial curve] |
| Cc1onc(-c2ccccc2Cl)c1C(=O)O/N=C(\N)c1ccc([N+](=O)[O-])o1 | -28.2 | – | 29.1 µM [falling, single point] |
| COC(=O)c1ccc(CNC(=O)CSc2nc3sc(C)c(C)c3c(=O)n2C)o1 | 24.5 | – | 0.411 µM [rising, single point] |
| Oc1oc(-c2ccc(Br)cc2)nc1C=Nc1ccc(Br)cn1 | 13.1 | – | 14.6 µM [rising, partial curve, poor fit] |
| O=C(O)C1CCCCC1C(=O)OCCCCOC(=O)C1CCCCC1C(=O)O (centres undefined) | -4.46 | – | 1.3 µM [falling, full curve, poor fit] |
| CC(C)CCn1c(Sc2nc3ccccc3o2)nc2c1c(=O)[nH]c(=O)n2C | 0.161 | – | 18.4 µM [falling, partial curve, poor fit] |
| CNC(=O)c1nn(-c2ccc(C)cc2)ccc1=O | -84.6 | 32.6 µM [falling, partial curve] | 18.4 µM [falling, partial curve, poor fit] |
| Cc1ccc(-c2nn(CC(=O)Nc3cccnc3)c(=O)c3ccccc23)cc1 | 35.5 | 0.82 µM [rising, full curve] | 18.4 µM [rising, partial curve] |
| CCN(C(=O)COC(=O)c1cccc(-n2cnnn2)c1)C1CCCCC1 | -35.2 | 0.58 µM [rising, single point] | – |
| Cc1ccc(C(=O)NC(=S)Nc2cc(C(F)(F)F)ccc2Cl)cc1 | 136 | – | 29.1 µM [rising, partial curve, poor fit] |
| CCOc1ccc(S(=O)(=O)Nc2ccc3c(c2)OCO3)cc1 | 10.1 | – | 6.51 µM [falling, single point] |
| O=C(CSc1nnc(-c2ccc(Br)o2)n1Cc1ccccc1)c1ccccc1F | – | 0.291 µM [rising, partial curve, poor fit] | 0.651 µM [rising, full curve] |

Single records, as listed above. Values in the order: cell number change [%]	AC50 [1]	AC50 [2]
`CC(C)C[C@H](NC(=O)N1CCn2c1nc1ccccc12)C(=O)NCc1ccccc1` reads -11.8	–	0.146 µM [falling, full curve, poor fit]
`CNC(=O)c1nn(-c2ccc(C)cc2)ccc1=O` reads -84.6	32.6 µM [falling, partial curve]	18.4 µM [falling, partial curve, poor fit]

Following part.

| SMILES | cell number change [%] | AC50 [1] | AC50 [2] |
| --- | --- | --- | --- |
| O=C(O)c1cccc(Nc2ncnc3c2cnn3-c2ccccc2)c1 | 1.25 | – | 0.82 µM [falling, partial curve] |
| COc1ccc(CC(=O)Nc2cccc(C(=O)O)c2C)cc1 | -4.97 | – | 29.1 µM [falling, single point] |
| CCOC(=O)C1CCN(S(=O)(=O)c2cc(Cl)c(C)cc2OC)CC1 | -10.4 | – | – |
| COc1ccc(-c2nc(CS(=O)(=O)CC(=O)NCc3cccc(F)c3)c(C)o2)cc1 | 44.1 | 32.6 µM [rising, single point] | – |
| CCC(C)(C)NC(=O)/C=C/c1ccccc1[N+](=O)[O-] | 62.1 | 18.4 µM [rising, single point] | – |
| CCCc1nc2c(=O)n(C)c(=O)[nH]c2n1C | -9.86 | – | 1.64 µM [falling, partial curve] |
| CC(C)c1nc2oc3ccccc3c(=O)c2c(=O)n1-c1ccccc1 | -2.45 | – | – |
| COc1ccc(S(=O)(=O)Nc2ccccc2C(=O)NCc2ccco2)cc1Br | -13.7 | – | – |
| Cc1cc(C)n(C2CCCCC2OC(=O)c2ccccc2)n1 (centres undefined) | 33.6 | 23.1 µM [rising, single point] | 16.4 µM [rising, partial curve] |
| NC(=O)C1CCN(C(=O)c2ccc(NS(=O)(=O)c3ccc(F)c(F)c3)cc2)CC1 | -1.08 | – | 6.51 µM [rising, partial curve, poor fit] |
| COc1cc(C)nc2nc(SCc3ccccc3)nn12 | 34.2 | 29.1 µM [rising, single point] | 29.1 µM [rising, single point] |
| O=C(Nc1ccc(O)cc1)c1ccc2c(c1)C(=O)N(Cc1ccccc1)C2=O | -47.5 | 29.1 µM [falling, single point] | 1.84 µM [falling, partial curve] |
| COc1ccc(NC(=O)CSc2nnc(CNC(=O)c3ccco3)o2)c(OC)c1 | 33.9 | 29.1 µM [rising, single point] | – |
| CCS(=O)(=O)N1Cc2ccccc2CC1C(=O)NC(C)C12CC3CC(CC(C3)C1)C2 (centres undefined) | – | – | 25.9 µM [falling, partial curve] |
| COc1ccccc1N1CCN(C(=O)NCc2ccc(Cl)cc2)CC1 | -7.66 | – | 29.1 µM [rising, partial curve] |
| O=C(CCCOC(=O)c1ccc(O)cc1O)c1ccc(Br)cc1 | -50.7 | 32.6 µM [falling, single point] | – |
| COc1cccc(CNC(=O)C(CCSC)NS(=O)(=O)c2ccc3c(c2)oc(=O)n3C)c1 (centres undefined) | – | – | 0.651 µM [falling, single point] |
| Cc1cc(NC(=O)CC#N)n(-c2ccccc2)n1 | -32.2 | – | – |
| Cc1ccc(S(=O)(=O)N(CC(=O)Nc2ccc(F)cc2)C(=O)N2CCN(C)CC2)cc1 | 4.61 | – | 29.1 µM [falling, single point] |
